Some of the results follow. Single values are uncertain, as repeats are few or missing.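 The apoptosis fraction was the count of cleaved-PARP antibody-stained nuclei relative to all DNA-stained nuclei, imaged in 1,536-well plates. Screening doses were set so most cells survived, and baseline and induced cleaved-PARP levels vary greatly across cell lines.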
system: WM3526; experiment: cleaved PARP positive nuclei fraction relative to DMSO control; melanoma cells; higher = more apoptosis; conditions: library dose: low library concentration; 72 h

Row | Compound | cleaved PARP positive nuclei fraction
1 | N.N.[Cl][Pt][Cl] [cisplatin] + CO[C@@H]1[C@H](N(C)C(=O)c2ccccc2)C[C@H]2O[C@]1(C)n1c3ccccc3c3c4c(c5c6ccccc6n2c5c31)C(=O)NC4 [Midostaurin] (first compound 1.6 µM, partner dose 0.08 µM) | 59.3%
2 | CCN(CC)CCNC(=O)c1c(C)[nH]c(/C=C2\C(=O)Nc3ccc(F)cc32)c1C [sunitinib] + O=C(Oc1ccc([N+](=O)[O-])cc1)N1CCC(C(O)(c2ccc3c(c2)OCO3)c2ccc3c(c2)OCO3)CC1 [JZL184] (first compound 0.4 µM, partner dose 1 µM) | 155%
3 | N.N.[Cl][Pt][Cl] [cisplatin] + Oc1cc(-c2nc(-c3ccccc3)[nH]c2-c2ccncc2)ccc1Cl [L779450] (first compound 1.6 µM, partner dose 0.2 µM) | 226%
4 | Clc1ccc(Nc2nnc(Cc3ccncc3)c3ccccc23)cc1 [vatalanib] + O=C(Oc1ccc([N+](=O)[O-])cc1)N1CCC(C(O)(c2ccc3c(c2)OCO3)c2ccc3c(c2)OCO3)CC1 [JZL184] (first compound 2 µM, partner dose 1 µM) | 68.8%
5 | C[As](C)SC[C@H](NC(=O)CC[C@H](N)C(=O)O)C(=O)NCC(=O)O [Darinaparsin] + OCCn1cc(-c2cnc3nnn(Cc4ccc5ncccc5c4)c3n2)cn1 [PF04217903] (first compound 0.4 µM, partner dose 1 µM) | 303%
6 | C[C@@H](N)c1ccc(C(=O)Nc2ccnc3[nH]ccc23)cc1 + Cc1cc(SCc2sc(-c3ccc(C(F)(F)F)c(F)c3)nc2C)ccc1OCC(=O)O [GW0742] (first compound 0.4 µM, partner dose 2 µM) | 214%
7 | N.N.[Cl][Pt][Cl] [cisplatin] + Cn1cncc1[C@@](N)(c1ccc(Cl)cc1)c1ccc2c(c1)c(-c1cccc(Cl)c1)cc(=O)n2C [tipifarnib] (first compound 1.6 µM, partner dose 0.01 µM) | 64.8%

system: WM3619; experiment: as above; conditions: library dose: low library concentration; 72 h

Row | Compound | cleaved PARP positive nuclei fraction
8 | NC1(c2ccc(-c3nc4ccn5c(=O)[nH]nc5c4cc3-c3ccccc3)cc2)CCC1 + O=C(Oc1ccc([N+](=O)[O-])cc1)N1CCC(C(O)(c2ccc3c(c2)OCO3)c2ccc3c(c2)OCO3)CC1 [JZL184] (first compound 0.4 µM, partner dose 1 µM) | 104%
9 | COc1ccc(C2=N[C@@H](c3ccc(Cl)cc3)[C@@H](c3ccc(Cl)cc3)N2C(=O)N2CCNC(=O)C2)c(OC(C)C)c1 [Nutlin-3] + C/C(O)=C(\C#N)C(=O)Nc1cc(Br)ccc1Br [LFM-A13] (first compound 0.1 µM, partner dose 2 µM) | 93.8%
10 | O=C(/C=C/c1cccnc1)NCCCCC1CCN(C(=O)c2ccccc2)CC1 + Cc1cc(SCc2sc(-c3ccc(C(F)(F)F)c(F)c3)nc2C)ccc1OCC(=O)O [GW0742] (first compound 0.01 µM, partner dose 2 µM) | 101%
11 | C[As](C)SC[C@H](NC(=O)CC[C@H](N)C(=O)O)C(=O)NCC(=O)O [Darinaparsin] + NC(=O)Nc1cc(-c2cccc(F)c2)sc1C(=O)N[C@H]1CCCNC1 [AZD7762] (first compound 0.4 µM, partner dose 0.02 µM) | 106%
12 | C[As](C)SC[C@H](NC(=O)CC[C@H](N)C(=O)O)C(=O)NCC(=O)O [Darinaparsin] + C[C@@H]1CCN(C(=O)CC#N)C[C@@H]1N(C)c1ncnc2[nH]ccc12 [CP690550] (first compound 0.4 µM, partner dose 1 µM) | 89.2%
13 | C[C@]1(O)C[C@@H](c2nc(-c3ccc4ccc(-c5ccccc5)nc4c3)c3c(N)nccn32)C1 + C/C(O)=C(\C#N)C(=O)Nc1cc(Br)ccc1Br [LFM-A13] (first compound 0.4 µM, partner dose 2 µM) | 95.1%
14 | N.N.[Cl][Pt][Cl] [cisplatin] + Cc1cc([N+](=O)[O-])ccc1NS(=O)(=O)c1cc(Cl)ccc1Cl [FH535] (first compound 1.6 µM, partner dose 1 µM) | 92.3%
15 | Cn1cc(C2=C(c3cn(C4CCN(Cc5ccccn5)CC4)c4ccccc34)C(=O)NC2=O)c2ccccc21 [Enzastaurin] + O=C1NC(=O)/C(=C/c2ccc(-c3ccc(F)cc3O)o2)S1 [AS252424] (first compound 0.8 µM, partner dose 1 µM) | 80.1%

Some values from the list.
In cleaved PARP positive nuclei fraction, O=C(/C=C/c1cccnc1)NCCCCC1CCN(C(=O)c2ccccc2)CC1 + Cc1cc(SCc2sc(-c3ccc(C(F)(F)F)c(F)c3)nc2C)ccc1OCC(=O)O [GW0742] (first compound 0.01 µM, partner dose 2 µM) has 101%
In cleaved PARP positive nuclei fraction, C[C@]1(O)C[C@@H](c2nc(-c3ccc4ccc(-c5ccccc5)nc4c3)c3c(N)nccn32)C1 + C/C(O)=C(\C#N)C(=O)Nc1cc(Br)ccc1Br [LFM-A13] (first compound 0.4 µM, partner dose 2 µM) has 95.1%
